Earlier results, collected in US7632872B2, “Analgesic agent for newborn or fetal subjects” (Protexeon Limited, priority 2002, dated 2009).
For at least one compound, name, drawing or mass did not settle the structure.

Settings: cited from earlier work

[Xe] [xenon]
blood gas partition coefficient: 0.115
